Inconclusive results, whose numbers are uncertain, are shown with a selection of clear calls. Where the call is inconclusive, the potency comes from a doubtful curve fit. Activity calls are given as the source filed them. Rule for the calls: active = hit-call score of the fitted dose curve at least 0.9, where 1 is the maximum; inconclusive = response in the unintended direction; inactive = score below 0.9.
What follows are compounds tested against Estrogen receptor (Homo sapiens) + Estrogen receptor beta (Homo sapiens) (UniProt P03372+Q92731) (assay: OT_ER_ERaERb_0480: Odyssey Thera (OT) 8-hour HEK293T Protein-Complementation Assay for Estrogen Receptor-alpha/-beta Heterodimer (AID 2283352)).
Method in brief: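 Fluorescence intensity readout from a protein-fragment complementation reporter in HEK293T; ER-alpha/ER-beta LBD heterodimer. Dosing 8 h. Gain-of-signal fit relative to DMSO negative control; laser scanning cytometry of whole-well cell population.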

Protein sequences, listed by entry. Tags and fused reporters are not part of them. Lines headed by an entry give the natural chain unless they say otherwise; changes in a name come on top.
UniProt P03372, whole entry, looked up: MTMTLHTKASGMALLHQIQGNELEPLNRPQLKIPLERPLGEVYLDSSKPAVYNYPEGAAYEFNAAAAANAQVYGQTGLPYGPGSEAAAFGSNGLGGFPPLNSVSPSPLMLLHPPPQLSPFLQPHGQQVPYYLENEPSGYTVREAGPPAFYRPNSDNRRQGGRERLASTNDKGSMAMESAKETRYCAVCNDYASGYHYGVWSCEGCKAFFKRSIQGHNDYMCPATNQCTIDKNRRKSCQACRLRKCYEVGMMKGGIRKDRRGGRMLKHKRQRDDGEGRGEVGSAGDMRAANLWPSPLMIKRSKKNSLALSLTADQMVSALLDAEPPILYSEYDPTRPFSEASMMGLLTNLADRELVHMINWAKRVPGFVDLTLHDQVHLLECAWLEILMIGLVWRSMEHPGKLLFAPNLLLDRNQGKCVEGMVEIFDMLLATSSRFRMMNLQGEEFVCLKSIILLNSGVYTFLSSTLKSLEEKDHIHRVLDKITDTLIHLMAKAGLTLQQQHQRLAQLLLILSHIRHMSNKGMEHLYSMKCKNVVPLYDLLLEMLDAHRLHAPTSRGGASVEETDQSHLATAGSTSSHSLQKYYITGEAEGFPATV
UniProt Q92731, whole entry, looked up: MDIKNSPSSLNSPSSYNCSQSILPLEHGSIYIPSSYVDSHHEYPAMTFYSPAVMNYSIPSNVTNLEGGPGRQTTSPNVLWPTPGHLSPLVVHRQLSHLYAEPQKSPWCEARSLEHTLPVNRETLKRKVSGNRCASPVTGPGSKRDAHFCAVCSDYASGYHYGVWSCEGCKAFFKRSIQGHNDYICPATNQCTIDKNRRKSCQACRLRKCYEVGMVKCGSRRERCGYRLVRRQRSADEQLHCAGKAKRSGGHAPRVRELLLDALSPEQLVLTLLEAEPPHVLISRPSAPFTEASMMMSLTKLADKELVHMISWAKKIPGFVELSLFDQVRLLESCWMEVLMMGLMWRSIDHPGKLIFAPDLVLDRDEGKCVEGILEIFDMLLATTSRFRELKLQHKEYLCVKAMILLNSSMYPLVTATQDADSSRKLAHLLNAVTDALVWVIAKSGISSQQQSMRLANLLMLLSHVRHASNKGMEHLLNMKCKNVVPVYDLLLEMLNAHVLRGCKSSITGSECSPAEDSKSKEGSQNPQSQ
UniProt P10275: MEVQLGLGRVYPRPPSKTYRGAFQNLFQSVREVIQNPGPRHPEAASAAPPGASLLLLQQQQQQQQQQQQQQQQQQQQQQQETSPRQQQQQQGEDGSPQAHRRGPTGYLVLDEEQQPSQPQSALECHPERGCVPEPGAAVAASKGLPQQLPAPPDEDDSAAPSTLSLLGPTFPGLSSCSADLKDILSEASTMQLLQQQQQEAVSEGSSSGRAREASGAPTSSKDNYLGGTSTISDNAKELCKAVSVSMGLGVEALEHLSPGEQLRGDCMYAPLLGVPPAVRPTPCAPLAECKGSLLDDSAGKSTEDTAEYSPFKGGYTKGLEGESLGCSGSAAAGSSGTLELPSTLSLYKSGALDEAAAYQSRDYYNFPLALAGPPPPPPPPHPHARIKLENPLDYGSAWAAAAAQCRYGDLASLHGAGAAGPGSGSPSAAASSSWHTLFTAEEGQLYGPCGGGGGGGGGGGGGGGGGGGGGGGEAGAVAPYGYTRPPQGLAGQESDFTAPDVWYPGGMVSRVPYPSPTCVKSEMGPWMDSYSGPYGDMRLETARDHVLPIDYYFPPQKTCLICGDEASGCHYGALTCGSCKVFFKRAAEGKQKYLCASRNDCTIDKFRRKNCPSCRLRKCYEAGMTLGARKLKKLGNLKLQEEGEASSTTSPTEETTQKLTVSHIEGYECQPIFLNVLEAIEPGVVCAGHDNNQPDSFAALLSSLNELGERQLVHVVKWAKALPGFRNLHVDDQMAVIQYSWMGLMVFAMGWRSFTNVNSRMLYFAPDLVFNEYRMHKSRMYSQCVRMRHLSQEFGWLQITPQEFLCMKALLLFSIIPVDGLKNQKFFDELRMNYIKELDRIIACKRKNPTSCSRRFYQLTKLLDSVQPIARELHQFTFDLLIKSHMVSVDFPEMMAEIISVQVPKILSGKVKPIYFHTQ

SMILES | AC50 | outcome
CC(Cc1ccc(OCC(=O)O)cc1)NCC(O)c1csc(C(F)(F)F)n1 (configuration not stated) | inconclusive: 50 µM | 
COc1ccc(O)c(C(C)(C)C)c1 | active: 50 µM | 
Cc1ccccc1[N+](=O)[O-] | inconclusive: 50 µM | 
COc1ccc(C=O)cc1OC | inconclusive: 50 µM | 
C=C(C)CN(CC)c1c([N+](=O)[O-])cc(C(F)(F)F)cc1[N+](=O)[O-] | active: 50 µM | 
Cc1cc(Cl)ccc1OC(C)C(=O)O (configuration not stated) |  | inactive
CC1(C)Cc2cccc(O)c2O1 |  | inactive
C[N+](C)(C)CC1CO1 (configuration not stated) |  | inactive
CCNP(=S)(OC)O/C(C)=C/C(=O)OC(C)C (configuration not stated) | inconclusive: 50 µM | 
CCC(C)(C)c1ccc(O)c(C(C)(C)CC)c1 | inconclusive: 87.7 µM | 
CN(C)C(=S)SSC(=S)N(C)C | inconclusive: 50 µM | 
CN(C)c1nc(=O)n(C2CCCCC2)c(=O)n1C | inconclusive: 5.63 µM | 
CO[C@@H]1[C@H](OC(=O)NC(=O)CCl)CC[C@]2(CO2)[C@H]1[C@@]1(C)O[C@@H]1CC=C(C)C | inconclusive: 15.4 µM | 
CS(=O)(=O)c1ccc(C(=O)C2C(=O)CCCC2=O)c([N+](=O)[O-])c1 |  | inactive
N#CN=C(N)N |  | inactive
CC1(C)CCC(=Cc2ccc(Cl)cc2)C1(O)Cn1cncn1 (configuration not stated) |  | inactive

As a short view, some entries already given:
SMILES | AC50 | outcome
C[N+](C)(C)CC1CO1 (configuration not stated) |  | inactive
CCNP(=S)(OC)O/C(C)=C/C(=O)OC(C)C (configuration not stated) | inconclusive: 50 µM | 

More results.

SMILES | AC50 | outcome
CC1(C)CN=C(NN=C(/C=C/c2ccc(C(F)(F)F)cc2)/C=C/c2ccc(C(F)(F)F)cc2)NC1 |  | inactive
COC(=O)C=C(C)OP(=O)(OC)OC |  | inactive
OCCOc1ccccc1 | inconclusive: 50 µM | 
Clc1ccc(Cl)cc1 |  | inactive
c1ccc2c(c1)CCCC2 |  | inactive
c1cc[c]([Hg][c]2ccccc2)cc1 | inconclusive: 50 µM | 
O=C(Nc1ccccc1)c1ccccc1I | inconclusive: 50 µM | 
CC(C)N(C(=O)COc1nnc(C(F)(F)F)s1)c1ccc(F)cc1 | inconclusive: 50 µM | 
COC(=O)NC(=S)Nc1ccccc1NC(=S)NC(=O)OC |  | inactive
COP(=O)(OC)OC(Br)C(Cl)(Cl)Br (configuration not stated) | inconclusive: 50 µM | 
OCc1ccco1 |  | inactive
CC#Cc1cc(C)nc(Nc2ccccc2)n1 |  | inactive
CC1(c2ccc(Oc3ccccc3)cc2)OC(=O)N(Nc2ccccc2)C1=O (configuration not stated) |  | inactive
CCCSP(=S)(OCC)Oc1ccc(SC)cc1 (configuration not stated) | active: 22.7 µM | 
O=P(O)(Oc1ccccc1)Oc1ccccc1 | inconclusive: 50 µM | 
CCCCOCCOP(=O)(OCCOCCCC)OCCOCCCC | inconclusive: 50 µM | 

Each compound was assayed against Androgen Receptor/SRC-1 Co-activator, AR (gene 367) (UniProt P10275) (assay: OT_AR_ARSRC1_0480: Odyssey Thera (OT) 8-hour HEK293T Protein-Complementation Assay for Androgen Receptor/SRC-1 Co-activator (AID 2283354);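 note: hits raise the complementation signal above DMSO so AC50 marks enhancers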).
Method in brief: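 Measures AR/SRC-1 binding by Venus YFP fragment complementation in HEK293T stable lines at 8 h post-dose. Imaging quantifies the 488nm nucleus/cytoplasm ratio in ≥400 cells; DMSO defines baseline.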

SMILES | AC50
CCCSP(=O)(OCC)SCCC | inconclusive: 51.5 µM
c1cc2c3c(cccc3c1)CC2 | inconclusive: 50 µM
[N-]=[N+]=[N-] | inconclusive: 50 µM
C[N+]1(C)CCCCC1 | inconclusive: 50 µM
COCCl | inconclusive: 17.5 µM

— PubChem BioAssay (EPA / NIEHS)
